PubChem BioAssay AID1224830 | NIAID, 2016
Shown is a random part of about 18,000 deposited reagents. Of all reagents, about 2,900 (16%) are marked active. 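Calls are made per well; low scores hint the gene aids the LPS response, high scores that it dampens it.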 A number with no mark means an inactive call. Repeated entries: four replicate wells of each siRNA pool. No sequences are given here.

Test: 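Regulators of TLR4 signalling towards TNF-alpha in macrophage-like cells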 (primary screen)
Cells: human THP-1 monocytic leukaemia cells, TNF dual-luciferase reporter clone, PMA-differentiated to macrophage-like cells
Reagents: siRNA pool against human genes, 50 nM
Duration: LPS for 4 h, given about 3 days after siRNA transfection
Conditions: bacterial LPS (TLR4 ligand), 10 ng/ml
Detection: 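TNF firefly reporter luminescence divided by renilla, normalised to the plate median, then turned into a robust z-score for each replicate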
Reading the numbers: TNF reporter robust z-score: higher = stronger TNF reporter response to LPS
Rule for the call: 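Each well counts as active if its z-score is over 2.8 or under -1.5; controls are left without a call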

UNC119
- TNF reporter robust z-score: 0.26

UNC119
- TNF reporter robust z-score: -0.24

UNC119
- TNF reporter robust z-score: -0.2

UNC119
- TNF reporter robust z-score: 2.84 (active)

BPIFB4
- TNF reporter robust z-score: -1.22

BPIFB4
- TNF reporter robust z-score: -1.6 (active)

BPIFB4
- TNF reporter robust z-score: -1.34

BPIFB4
- TNF reporter robust z-score: -1.19

PLK4
- TNF reporter robust z-score: -0.17

PLK4
- TNF reporter robust z-score: -0.41

PLK4
- TNF reporter robust z-score: -1.03

PLK4
- TNF reporter robust z-score: 0.28

KANSL1L
- TNF reporter robust z-score: 0.1

KANSL1L
- TNF reporter robust z-score: 0.72

KANSL1L
- TNF reporter robust z-score: -0.01

KANSL1L
- TNF reporter robust z-score: 0.77

TCEAL3
- TNF reporter robust z-score: -0.29

TCEAL3
- TNF reporter robust z-score: -0.67

TCEAL3
- TNF reporter robust z-score: 0.01

TCEAL3
- TNF reporter robust z-score: 0.08

More entries follow.
VAT1
- TNF reporter robust z-score: -0.09

VAT1
- TNF reporter robust z-score: 0.08

VAT1
- TNF reporter robust z-score: -0.28

VAT1
- TNF reporter robust z-score: 0.01

ZBTB33
- TNF reporter robust z-score: 0.46

ZBTB33
- TNF reporter robust z-score: 1.33

ZBTB33
- TNF reporter robust z-score: 0.11

ZBTB33
- TNF reporter robust z-score: 1.16

TMTC3
- TNF reporter robust z-score: -0.56

TMTC3
- TNF reporter robust z-score: 0.08

TMTC3
- TNF reporter robust z-score: -0.08

TMTC3
- TNF reporter robust z-score: 0.45

FXR2
- TNF reporter robust z-score: 1.3

FXR2
- TNF reporter robust z-score: -0.13

FXR2
- TNF reporter robust z-score: 0.25

FXR2
- TNF reporter robust z-score: 2.05

TRUB2
- TNF reporter robust z-score: -0.74

TRUB2
- TNF reporter robust z-score: 1.03

TRUB2
- TNF reporter robust z-score: -0.2

TRUB2
- TNF reporter robust z-score: 0.85

CCDC125
- TNF reporter robust z-score: 2.4

CCDC125
- TNF reporter robust z-score: 2.99 (active)

CCDC125
- TNF reporter robust z-score: 2.91 (active)

CCDC125
- TNF reporter robust z-score: 3.11 (active)

C9
- TNF reporter robust z-score: 0.75

C9
- TNF reporter robust z-score: 0.22

C9
- TNF reporter robust z-score: 0.56

C9
- TNF reporter robust z-score: 0.39
